Reference: the supplement of paper PMC6411743
± gives the standard deviation of the averaged measurements. The list shows a part of the results.

Chains of the proteins cited; added tags and fusions are not shown. Lines headed by an entry give the natural chain unless they say otherwise; changes in a name come on top.
UniProt Q9UNF1: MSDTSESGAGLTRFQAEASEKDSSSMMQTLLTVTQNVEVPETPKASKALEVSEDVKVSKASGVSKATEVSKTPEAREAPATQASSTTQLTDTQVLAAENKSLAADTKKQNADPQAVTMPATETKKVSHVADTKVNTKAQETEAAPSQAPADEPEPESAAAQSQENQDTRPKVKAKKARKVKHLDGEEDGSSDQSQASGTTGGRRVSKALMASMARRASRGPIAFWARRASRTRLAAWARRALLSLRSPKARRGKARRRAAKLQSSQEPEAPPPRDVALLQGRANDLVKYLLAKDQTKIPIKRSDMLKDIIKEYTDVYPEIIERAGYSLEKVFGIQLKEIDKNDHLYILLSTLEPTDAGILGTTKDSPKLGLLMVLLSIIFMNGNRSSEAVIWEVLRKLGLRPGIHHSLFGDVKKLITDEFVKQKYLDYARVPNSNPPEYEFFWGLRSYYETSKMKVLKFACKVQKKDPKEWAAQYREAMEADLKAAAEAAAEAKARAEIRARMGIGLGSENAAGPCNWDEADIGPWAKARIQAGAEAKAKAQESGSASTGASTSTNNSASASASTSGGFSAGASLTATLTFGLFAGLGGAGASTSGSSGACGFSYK
UniProt Q9UQN3, whole entry: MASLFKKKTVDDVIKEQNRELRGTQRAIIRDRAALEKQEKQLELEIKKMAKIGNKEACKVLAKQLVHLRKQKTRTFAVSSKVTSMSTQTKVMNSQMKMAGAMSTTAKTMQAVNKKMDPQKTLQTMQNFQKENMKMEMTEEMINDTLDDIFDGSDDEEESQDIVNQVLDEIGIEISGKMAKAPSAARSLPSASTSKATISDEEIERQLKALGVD
UniProt Q9Y2F5: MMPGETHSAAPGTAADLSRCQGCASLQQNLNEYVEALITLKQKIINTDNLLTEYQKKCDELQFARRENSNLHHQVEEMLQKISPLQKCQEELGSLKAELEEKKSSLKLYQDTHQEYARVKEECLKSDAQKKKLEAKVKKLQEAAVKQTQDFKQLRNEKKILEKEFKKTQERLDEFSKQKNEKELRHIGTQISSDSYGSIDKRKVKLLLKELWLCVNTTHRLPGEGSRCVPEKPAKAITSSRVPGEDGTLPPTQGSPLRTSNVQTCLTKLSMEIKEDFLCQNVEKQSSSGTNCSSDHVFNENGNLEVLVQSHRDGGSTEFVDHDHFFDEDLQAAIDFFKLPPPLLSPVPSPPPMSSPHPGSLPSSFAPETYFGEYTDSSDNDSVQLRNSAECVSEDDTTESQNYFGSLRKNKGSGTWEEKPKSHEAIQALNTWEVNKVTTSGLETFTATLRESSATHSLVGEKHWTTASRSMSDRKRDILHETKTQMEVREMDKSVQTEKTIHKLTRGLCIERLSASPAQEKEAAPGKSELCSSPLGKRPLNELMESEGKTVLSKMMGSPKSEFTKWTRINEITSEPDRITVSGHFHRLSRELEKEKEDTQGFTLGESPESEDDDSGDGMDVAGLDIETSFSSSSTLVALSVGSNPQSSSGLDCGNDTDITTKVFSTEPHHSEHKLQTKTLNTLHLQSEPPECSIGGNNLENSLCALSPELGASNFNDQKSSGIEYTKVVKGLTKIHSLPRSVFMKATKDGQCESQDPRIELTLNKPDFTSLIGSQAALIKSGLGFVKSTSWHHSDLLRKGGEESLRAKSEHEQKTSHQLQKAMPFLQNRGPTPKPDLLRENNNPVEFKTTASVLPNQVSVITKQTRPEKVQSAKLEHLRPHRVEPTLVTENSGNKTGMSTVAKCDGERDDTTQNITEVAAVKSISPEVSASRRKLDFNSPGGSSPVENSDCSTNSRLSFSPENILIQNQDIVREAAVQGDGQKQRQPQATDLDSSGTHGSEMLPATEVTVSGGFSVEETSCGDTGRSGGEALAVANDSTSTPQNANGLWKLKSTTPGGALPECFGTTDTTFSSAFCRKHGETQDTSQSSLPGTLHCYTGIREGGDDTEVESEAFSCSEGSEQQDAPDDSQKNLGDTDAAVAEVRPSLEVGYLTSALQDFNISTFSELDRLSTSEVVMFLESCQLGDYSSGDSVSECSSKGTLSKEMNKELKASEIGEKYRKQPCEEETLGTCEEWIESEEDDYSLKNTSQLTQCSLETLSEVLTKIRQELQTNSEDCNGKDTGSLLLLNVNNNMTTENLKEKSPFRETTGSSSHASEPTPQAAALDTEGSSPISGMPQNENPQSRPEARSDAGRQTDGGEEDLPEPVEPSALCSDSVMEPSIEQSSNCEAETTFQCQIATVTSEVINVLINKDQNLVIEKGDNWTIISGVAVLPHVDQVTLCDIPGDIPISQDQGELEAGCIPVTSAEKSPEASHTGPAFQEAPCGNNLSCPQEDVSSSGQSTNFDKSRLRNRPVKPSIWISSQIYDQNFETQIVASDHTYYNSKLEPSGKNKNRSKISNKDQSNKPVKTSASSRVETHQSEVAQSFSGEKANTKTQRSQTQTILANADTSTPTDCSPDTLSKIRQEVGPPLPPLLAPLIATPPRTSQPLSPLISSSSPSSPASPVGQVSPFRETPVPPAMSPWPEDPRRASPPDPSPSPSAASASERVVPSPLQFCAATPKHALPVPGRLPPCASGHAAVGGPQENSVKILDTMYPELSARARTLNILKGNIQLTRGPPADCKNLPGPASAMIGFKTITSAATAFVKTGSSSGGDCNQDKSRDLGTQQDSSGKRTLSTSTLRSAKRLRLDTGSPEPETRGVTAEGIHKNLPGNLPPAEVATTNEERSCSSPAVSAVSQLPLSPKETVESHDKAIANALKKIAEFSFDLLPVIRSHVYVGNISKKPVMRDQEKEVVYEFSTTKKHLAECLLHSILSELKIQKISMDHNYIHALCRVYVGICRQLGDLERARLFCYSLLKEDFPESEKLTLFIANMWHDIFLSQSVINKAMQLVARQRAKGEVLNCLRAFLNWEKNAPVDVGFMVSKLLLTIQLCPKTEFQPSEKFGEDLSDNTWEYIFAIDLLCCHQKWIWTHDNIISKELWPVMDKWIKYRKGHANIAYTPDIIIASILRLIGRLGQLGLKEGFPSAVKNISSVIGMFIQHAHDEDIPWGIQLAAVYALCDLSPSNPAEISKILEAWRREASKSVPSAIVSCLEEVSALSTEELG
UniProt Q9UPY8, whole entry: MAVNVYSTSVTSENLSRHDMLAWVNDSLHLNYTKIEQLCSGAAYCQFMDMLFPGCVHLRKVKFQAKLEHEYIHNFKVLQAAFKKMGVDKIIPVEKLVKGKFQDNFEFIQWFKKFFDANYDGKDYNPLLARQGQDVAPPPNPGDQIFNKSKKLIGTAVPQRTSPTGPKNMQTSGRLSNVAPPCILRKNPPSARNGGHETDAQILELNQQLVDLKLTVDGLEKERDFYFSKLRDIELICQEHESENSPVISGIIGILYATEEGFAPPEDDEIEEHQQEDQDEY
UniProt Q9Y2X3: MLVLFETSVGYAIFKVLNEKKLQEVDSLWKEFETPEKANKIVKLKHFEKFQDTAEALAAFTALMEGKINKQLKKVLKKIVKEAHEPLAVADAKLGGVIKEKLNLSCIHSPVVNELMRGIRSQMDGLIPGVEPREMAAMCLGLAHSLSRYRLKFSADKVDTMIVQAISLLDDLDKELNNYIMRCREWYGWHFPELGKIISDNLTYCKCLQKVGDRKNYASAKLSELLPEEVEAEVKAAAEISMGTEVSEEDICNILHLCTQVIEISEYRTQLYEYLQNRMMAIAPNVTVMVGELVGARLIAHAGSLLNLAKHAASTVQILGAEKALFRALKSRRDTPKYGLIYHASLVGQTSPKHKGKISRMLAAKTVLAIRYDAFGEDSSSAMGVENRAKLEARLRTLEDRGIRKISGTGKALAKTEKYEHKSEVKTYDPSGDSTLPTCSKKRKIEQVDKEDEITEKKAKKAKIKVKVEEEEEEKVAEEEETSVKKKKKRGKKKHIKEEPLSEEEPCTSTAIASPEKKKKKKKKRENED
UniProt Q9Y3F4: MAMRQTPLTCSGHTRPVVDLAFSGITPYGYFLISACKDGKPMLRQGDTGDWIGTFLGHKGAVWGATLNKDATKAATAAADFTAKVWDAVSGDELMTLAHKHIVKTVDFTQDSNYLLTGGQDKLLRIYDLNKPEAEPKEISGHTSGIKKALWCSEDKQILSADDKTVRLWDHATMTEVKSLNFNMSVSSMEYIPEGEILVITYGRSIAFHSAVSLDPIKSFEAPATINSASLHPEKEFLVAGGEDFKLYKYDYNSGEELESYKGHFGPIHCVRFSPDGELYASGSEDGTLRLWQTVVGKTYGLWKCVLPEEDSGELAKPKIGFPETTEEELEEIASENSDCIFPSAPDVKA
UniProt Q9Y276: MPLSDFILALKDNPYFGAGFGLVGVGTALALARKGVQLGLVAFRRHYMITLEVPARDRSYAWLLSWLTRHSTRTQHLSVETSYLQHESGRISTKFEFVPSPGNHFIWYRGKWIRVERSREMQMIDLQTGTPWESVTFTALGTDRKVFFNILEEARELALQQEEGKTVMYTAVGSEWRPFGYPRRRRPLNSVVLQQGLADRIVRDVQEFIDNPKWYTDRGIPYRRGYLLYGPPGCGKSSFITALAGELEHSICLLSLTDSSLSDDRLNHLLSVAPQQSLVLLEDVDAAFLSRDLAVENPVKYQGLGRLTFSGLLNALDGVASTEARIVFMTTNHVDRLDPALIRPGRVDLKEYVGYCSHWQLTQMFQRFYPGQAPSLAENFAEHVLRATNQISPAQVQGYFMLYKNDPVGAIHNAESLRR
UniProt Q9Y5K8, whole entry: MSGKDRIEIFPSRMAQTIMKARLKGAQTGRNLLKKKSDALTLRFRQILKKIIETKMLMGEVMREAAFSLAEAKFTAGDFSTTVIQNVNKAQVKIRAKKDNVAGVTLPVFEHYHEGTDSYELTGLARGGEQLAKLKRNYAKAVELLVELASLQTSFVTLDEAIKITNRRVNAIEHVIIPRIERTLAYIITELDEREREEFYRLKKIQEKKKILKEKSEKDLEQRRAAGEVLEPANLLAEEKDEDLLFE
UniProt Q9Y277: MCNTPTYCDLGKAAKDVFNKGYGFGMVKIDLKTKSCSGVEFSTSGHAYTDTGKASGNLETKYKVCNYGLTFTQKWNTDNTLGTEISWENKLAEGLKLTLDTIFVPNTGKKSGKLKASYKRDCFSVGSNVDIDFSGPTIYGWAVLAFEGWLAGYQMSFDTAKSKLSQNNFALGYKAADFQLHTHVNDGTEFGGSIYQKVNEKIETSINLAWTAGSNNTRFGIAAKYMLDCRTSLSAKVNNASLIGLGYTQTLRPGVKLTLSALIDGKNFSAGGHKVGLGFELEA
UniProt Q9Y248: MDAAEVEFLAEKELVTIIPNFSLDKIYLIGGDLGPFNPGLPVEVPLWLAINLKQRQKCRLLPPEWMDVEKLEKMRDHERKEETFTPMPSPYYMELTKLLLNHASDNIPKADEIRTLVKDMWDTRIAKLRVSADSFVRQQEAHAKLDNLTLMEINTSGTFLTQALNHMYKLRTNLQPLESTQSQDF
UniProt Q9UQE7: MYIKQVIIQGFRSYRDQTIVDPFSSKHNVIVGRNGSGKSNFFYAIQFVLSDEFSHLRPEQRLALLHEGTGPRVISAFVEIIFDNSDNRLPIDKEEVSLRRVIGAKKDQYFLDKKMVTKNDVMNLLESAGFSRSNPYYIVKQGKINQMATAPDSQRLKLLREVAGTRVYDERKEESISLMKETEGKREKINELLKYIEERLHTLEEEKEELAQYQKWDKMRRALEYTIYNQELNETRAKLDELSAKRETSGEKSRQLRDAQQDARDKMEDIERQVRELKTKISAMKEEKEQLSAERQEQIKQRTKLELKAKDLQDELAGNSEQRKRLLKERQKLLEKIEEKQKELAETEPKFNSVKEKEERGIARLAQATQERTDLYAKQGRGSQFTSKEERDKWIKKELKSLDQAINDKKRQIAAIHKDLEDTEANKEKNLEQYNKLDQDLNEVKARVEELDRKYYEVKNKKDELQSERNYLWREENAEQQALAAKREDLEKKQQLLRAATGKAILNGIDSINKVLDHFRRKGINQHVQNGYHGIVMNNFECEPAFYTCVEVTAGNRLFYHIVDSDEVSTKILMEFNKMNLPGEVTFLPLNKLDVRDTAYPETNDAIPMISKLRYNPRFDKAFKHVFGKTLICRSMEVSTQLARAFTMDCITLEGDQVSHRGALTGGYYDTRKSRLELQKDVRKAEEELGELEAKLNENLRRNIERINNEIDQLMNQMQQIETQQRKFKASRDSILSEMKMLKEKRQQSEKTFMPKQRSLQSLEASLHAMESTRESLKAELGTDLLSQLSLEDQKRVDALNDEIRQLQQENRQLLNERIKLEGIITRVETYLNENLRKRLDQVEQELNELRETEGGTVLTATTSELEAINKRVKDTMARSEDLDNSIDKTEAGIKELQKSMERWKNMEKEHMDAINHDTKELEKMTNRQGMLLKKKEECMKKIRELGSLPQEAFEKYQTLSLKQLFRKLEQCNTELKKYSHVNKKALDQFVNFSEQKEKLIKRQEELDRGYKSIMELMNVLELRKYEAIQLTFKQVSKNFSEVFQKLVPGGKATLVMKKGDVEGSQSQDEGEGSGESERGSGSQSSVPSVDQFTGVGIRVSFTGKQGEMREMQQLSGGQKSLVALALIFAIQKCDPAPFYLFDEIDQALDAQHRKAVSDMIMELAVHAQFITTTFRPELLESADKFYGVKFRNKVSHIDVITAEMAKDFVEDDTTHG

Compound: Nc1nc2c(ncn2[C@@H]2O[C@H](COP(=O)(O)OP(=O)(O)OP(=O)(O)O)[C@@H](O)[C@H]2O)c(=O)[nH]1 [guanosine triphosphate]
Experiment: NP40-soluble protein abundance relative to vehicle (solubility fold change) (ratio); higher = more soluble protein in presence of GTP
Outline: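 Crude Jurkat lysate, prepared by Dounce homogenisation, was exposed to eight concentrations from 0.1 to 10 mM for 10 min at room temperature and then 3 min at 37 °C. Solubilisation used 0.8% NP40 with benzonase for 60 min at 4 °C, followed by ultracentrifugation and TMT labelling of the supernatant for LC-MS/MS. After vsn normalisation of intensities, each value is the fold change against the detergent-processed vehicle within each replicate, across three independent experiments.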

Target | NP40-soluble protein abundance (concentration: 0.1mM) | NP40-soluble protein abundance (concentration: 0.5mM) | NP40-soluble protein abundance (concentration: 1mM) | NP40-soluble protein abundance (concentration: 2mM) | NP40-soluble protein abundance (concentration: 4mM) | NP40-soluble protein abundance (concentration: 6mM) | NP40-soluble protein abundance (concentration: 8mM) | NP40-soluble protein abundance (concentration: 10mM)
MAGED2 (UniProt Q9UNF1) | 1 ± 0.039 | 0.993 ± 0.021 | 1 ± 0.025 | 0.978 ± 0.037 | 0.987 ± 0.028 | 0.985 ± 0.026 | 1.03 ± 0.026 | 0.982 ± 0.017
RAPGEF2 (UniProt Q9Y4G8) | 1.04 ± 0.1 | 1.05 ± 0.13 | 1.01 ± 0.066 | 0.977 ± 0.076 | 0.887 ± 0.089 | 0.932 ± 0.075 | 0.959 ± 0.19 | 0.902 ± 0.064
TSC22D4 (UniProt Q9Y3Q8) | 0.942 ± 0.05 | 0.999 ± 0.13 | 1.08 ± 0.093 | 1.04 ± 0.09 | 1 ± 0.074 | 1.04 ± 0.15 | 1.07 ± 0.079 | 1.06 ± 0.02
RABGAP1 (UniProt Q9Y3P9) | 0.983 ± 0.033 | 0.989 ± 0.024 | 0.943 ± 0.026 | 0.9489 ± 0.0078 | 0.938 ± 0.019 | 0.928 ± 0.019 | 0.928 ± 0.012 | 0.925 ± 0.021
CHMP2B (UniProt Q9UQN3) | 0.905 ± 0.051 | 0.909 ± 0.092 | 0.989 ± 0.079 | 0.931 ± 0.15 | 0.938 ± 0.12 | 0.967 ± 0.14 | 0.953 ± 0.085 | 0.932 ± 0.11
KMT2B (UniProt Q9UMN6) | 0.989 ± 0.064 | 1.07 ± 0.042 | 1.08 ± 0.059 | 1.1 ± 0.021 | 1.06 ± 0.023 | 1.09 ± 0.025 | 1.11 ± 0.11 | 1.08 ± 0.11
ICE1 (UniProt Q9Y2F5) | 1.09 ± 0.042 | 1.13 ± 0.067 | 1.14 ± 0.021 | 1.2 ± 0.059 | 1.31 ± 0.091 | 1.35 ± 0.028 | 1.4 ± 0.014 | 1.38 ± 0.054
TTF2 (UniProt Q9UNY4) | 1 ± 0.015 | 0.994 ± 0.03 | 0.974 ± 0.045 | 0.967 ± 0.036 | 0.937 ± 0.057 | 0.954 ± 0.067 | 0.984 ± 0.037 | 0.964 ± 0.037
MAPRE3 (UniProt Q9UPY8) | 1.07 ± 0.16 | 0.926 ± 0.053 | 1.06 ± 0.1 | 1.03 ± 0.035 | 1.12 ± 0.12 | 1.046 ± 0.0017 | 1.01 ± 0.032 | 0.963 ± 0.036
NOP58 (UniProt Q9Y2X3) | 1.01 ± 0.049 | 1.02 ± 0.019 | 1.07 ± 0.075 | 1.19 ± 0.044 | 1.4 ± 0.066 | 1.58 ± 0.13 | 1.77 ± 0.11 | 2.07 ± 0.16
UniProt Q9Y3F4 and related entries | 0.919 ± 0.029 | 0.987 ± 0.022 | 0.9042 ± 0.0031 | 0.887 ± 0.016 | 0.866 ± 0.018 | 0.927 ± 0.0095 | 0.892 ± 0.03 | 0.882 ± 0.023
YTHDF2 (UniProt Q9Y5A9) | 0.988 ± 0.042 | 0.983 ± 0.047 | 0.98 ± 0.07 | 0.931 ± 0.049 | 0.958 ± 0.064 | 0.95 ± 0.066 | 0.98 ± 0.07 | 0.93 ± 0.07
TAF6L (UniProt Q9Y6J9) | 1.12 ± 0.067 | 1.18 ± 0.04 | 1.17 ± 0.18 | 1.11 ± 0.11 | 1.21 ± 0.17 | 1.24 ± 0.17 | 1.23 ± 0.16 | 1.25 ± 0.14
BCS1L (UniProt Q9Y276) | 1.08 ± 0.095 | 1.1 ± 0.15 | 0.982 ± 0.086 | 1.13 ± 0.22 | 1 ± 0.16 | 1.01 ± 0.17 | 0.943 ± 0.054 | 0.966 ± 0.14
UniProt Q9Y3B7 and related entries | 0.921 ± 0.17 | 0.966 ± 0.19 | 1.21 ± 0.31 | 1.34 ± 0.25 | 1.32 ± 0.32 | 1.34 ± 0.31 | 1.21 ± 0.3 | 1.49 ± 0.5
UniProt Q9Y4P8 and related entries | 1.04 ± 0.11 | 1.01 ± 0.028 | 0.976 ± 0.11 | 0.961 ± 0.1 | 0.959 ± 0.1 | 0.959 ± 0.053 | 0.954 ± 0.042 | 0.896 ± 0.021
USP20 (UniProt Q9Y2K6) | 1.08 ± 0.068 | 1.05 ± 0.17 | 1.06 ± 0.092 | 1.08 ± 0.1 | 1.04 ± 0.13 | 1.07 ± 0.13 | 1.05 ± 0.12 | 1 ± 0.087
ATP6V1D (UniProt Q9Y5K8) | 1.04 ± 0.016 | 1.06 ± 0.03 | 1.04 ± 0.03 | 1.06 ± 0.022 | 1.056 ± 0.0052 | 1.03 ± 0.05 | 1.02 ± 0.045 | 0.992 ± 0.018
UniProt Q9UQ13 and related entries | 0.989 ± 0.056 | 0.982 ± 0.034 | 0.973 ± 0.067 | 0.94 ± 0.092 | 0.93 ± 0.09 | 0.943 ± 0.068 | 0.965 ± 0.062 | 0.939 ± 0.11
VDAC3 (UniProt Q9Y277) | 0.95 ± 0.048 | 0.941 ± 0.034 | 0.891 ± 0.027 | 0.8766 ± 0.0075 | 0.893 ± 0.019 | 0.861 ± 0.013 | 0.847 ± 0.068 | 0.814 ± 0.057
UniProt Q9Y5T5 and related entries | 1.1 ± 0.037 | 1.1 ± 0.047 | 1.12 ± 0.033 | 1.23 ± 0.086 | 1.34 ± 0.15 | 1.44 ± 0.14 | 1.49 ± 0.22 | 1.58 ± 0.21
NOC2L (UniProt Q9Y3T9) | 1.05 ± 0.014 | 1.04 ± 0.067 | 0.995 ± 0.022 | 1.03 ± 0.11 | 1.11 ± 0.041 | 1.17 ± 0.041 | 1.22 ± 0.061 | 1.32 ± 0.11
UniProt Q9Y2V2 and related entries | 0.887 ± 0.049 | 0.86 ± 0.075 | 0.96 ± 0.061 | 0.901 ± 0.079 | 0.876 ± 0.065 | 0.907 ± 0.11 | 0.899 ± 0.12 | 0.932 ± 0.054
GINS2 (UniProt Q9Y248) | 0.945 ± 0.05 | 0.919 ± 0.042 | 0.998 ± 0.027 | 0.974 ± 0.094 | 0.992 ± 0.046 | 0.96 ± 0.064 | 0.946 ± 0.042 | 1.01 ± 0.015
NISCH (UniProt Q9Y2I1) | 0.994 ± 0.023 | 0.981 ± 0.021 | 0.985 ± 0.019 | 0.951 ± 0.012 | 0.94 ± 0.047 | 0.9379 ± 0.0056 | 0.921 ± 0.01 | 0.91 ± 0.022
RUVBL1 (UniProt Q9Y265) | 1.04 ± 0.067 | 1.12 ± 0.11 | 1.09 ± 0.12 | 1.14 ± 0.16 | 1.18 ± 0.17 | 1.21 ± 0.19 | 1.17 ± 0.19 | 1.14 ± 0.15
SMC3 (UniProt Q9UQE7) | 1 ± 0.025 | 1.04 ± 0.012 | 1.025 ± 0.0043 | 1.02 ± 0.032 | 1.03 ± 0.032 | 1.02 ± 0.043 | 1.06 ± 0.058 | 1.01 ± 0.024
UniProt Q9Y697 and related entries | 1.05 ± 0.027 | 1.02 ± 0.028 | 0.974 ± 0.032 | 1.01 ± 0.014 | 0.992 ± 0.027 | 0.946 ± 0.025 | 0.928 ± 0.026 | 0.922 ± 0.068

Record cards, as listed above. Values in the order: NP40-soluble protein abundance (concentration: 0.1mM) | NP40-soluble protein abundance (concentration: 0.5mM) | NP40-soluble protein abundance (concentration: 1mM) | NP40-soluble protein abundance (concentration: 2mM) | NP40-soluble protein abundance (concentration: 4mM) | NP40-soluble protein abundance (concentration: 6mM) | NP40-soluble protein abundance (concentration: 8mM) | NP40-soluble protein abundance (concentration: 10mM)
BCS1L (UniProt Q9Y276) in the list: 1.08 ± 0.095 | 1.1 ± 0.15 | 0.982 ± 0.086 | 1.13 ± 0.22 | 1 ± 0.16 | 1.01 ± 0.17 | 0.943 ± 0.054 | 0.966 ± 0.14
ICE1 (UniProt Q9Y2F5) in the list: 1.09 ± 0.042 | 1.13 ± 0.067 | 1.14 ± 0.021 | 1.2 ± 0.059 | 1.31 ± 0.091 | 1.35 ± 0.028 | 1.4 ± 0.014 | 1.38 ± 0.054
